Results are given in words; binding and its absence hold for the method and conditions named. In cells and extracts the contact can be indirect. Some entries that bind do so weakly or less than the wild type. Tags and fused reporters may be left off the sequences shown.

This is an account of results in publication PMC9587005, “Phosphatidic Acid Mediates the Nem1-Spo7/Pah1 Phosphatase Cascade in Yeast Lipid Synthesis” (Journal of Lipid Research, 2022).

The assay has as its target T1, Protein A-tagged Nem1 (catalytic subunit of the Nem1-Spo7 protein phosphatase complex) (S. cerevisiae) (UniProt P38757).
T1 sequence: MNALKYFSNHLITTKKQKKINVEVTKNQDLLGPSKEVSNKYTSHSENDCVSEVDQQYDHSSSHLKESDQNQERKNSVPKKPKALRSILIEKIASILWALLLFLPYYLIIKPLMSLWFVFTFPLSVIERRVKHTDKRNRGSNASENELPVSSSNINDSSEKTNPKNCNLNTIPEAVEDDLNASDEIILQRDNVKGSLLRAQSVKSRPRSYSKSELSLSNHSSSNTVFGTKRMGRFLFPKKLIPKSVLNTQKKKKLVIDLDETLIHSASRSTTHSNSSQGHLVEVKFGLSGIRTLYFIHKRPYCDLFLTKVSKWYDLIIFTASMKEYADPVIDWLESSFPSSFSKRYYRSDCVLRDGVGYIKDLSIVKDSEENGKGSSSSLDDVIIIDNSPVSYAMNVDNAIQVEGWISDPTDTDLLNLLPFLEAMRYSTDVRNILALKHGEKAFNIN
Put plainly: pull-down; affinity chromatography with IgG-Sepharose of protein A-tagged Nem1 from S. cerevisiae co-expressing Spo7; Nem1 and Spo7 of the purified complex later detected by Western blotting with anti-protein A and anti-Spo7 antibodies (after reconstitution into liposomes, Sephadex G-50 fractions). (In western blotting, separated proteins are transferred to a membrane and probed.)

B1: Spo7 (regulatory subunit of the Nem1-Spo7 protein phosphatase complex) (protein, UniProt P18410 1-259)
chain: MEPESIGDVGNHAQDDSASIVSGPRRRSTSKTSSAKNIRNSSNISPASMIFRNLLILEDDLRRQAHEQKILKWQFTLFLASMAGVGAFTFYELYFTSDYVKGLHRVILQFTLSFISITVVLFHISGQYRRTIVIPRRFFTSTNKGIRQFNVKLVKVQSTWDEKYTDSVRFVSRTIAYCNIYCLKKFLWLKDDNAIVKFWKSVTIQSQPRIGAVDVKLVLNPRAFSAEIREGWEIYRDEFWAREGARRRKQAHELRPKSE
In the case of B1, the binding entry was “binds”.
